These are yes or no findings as the source states them, for the method shown. Binding seen in cells or lysates may run through a third protein. Some results given as binding are weak or reduced against the parent protein; the word gives no strength.

Sequences of proteins named here, by UniProt entry; tags and fusion partners are left off. Residues count along the entry.
UniProt O35375, residues 21-931: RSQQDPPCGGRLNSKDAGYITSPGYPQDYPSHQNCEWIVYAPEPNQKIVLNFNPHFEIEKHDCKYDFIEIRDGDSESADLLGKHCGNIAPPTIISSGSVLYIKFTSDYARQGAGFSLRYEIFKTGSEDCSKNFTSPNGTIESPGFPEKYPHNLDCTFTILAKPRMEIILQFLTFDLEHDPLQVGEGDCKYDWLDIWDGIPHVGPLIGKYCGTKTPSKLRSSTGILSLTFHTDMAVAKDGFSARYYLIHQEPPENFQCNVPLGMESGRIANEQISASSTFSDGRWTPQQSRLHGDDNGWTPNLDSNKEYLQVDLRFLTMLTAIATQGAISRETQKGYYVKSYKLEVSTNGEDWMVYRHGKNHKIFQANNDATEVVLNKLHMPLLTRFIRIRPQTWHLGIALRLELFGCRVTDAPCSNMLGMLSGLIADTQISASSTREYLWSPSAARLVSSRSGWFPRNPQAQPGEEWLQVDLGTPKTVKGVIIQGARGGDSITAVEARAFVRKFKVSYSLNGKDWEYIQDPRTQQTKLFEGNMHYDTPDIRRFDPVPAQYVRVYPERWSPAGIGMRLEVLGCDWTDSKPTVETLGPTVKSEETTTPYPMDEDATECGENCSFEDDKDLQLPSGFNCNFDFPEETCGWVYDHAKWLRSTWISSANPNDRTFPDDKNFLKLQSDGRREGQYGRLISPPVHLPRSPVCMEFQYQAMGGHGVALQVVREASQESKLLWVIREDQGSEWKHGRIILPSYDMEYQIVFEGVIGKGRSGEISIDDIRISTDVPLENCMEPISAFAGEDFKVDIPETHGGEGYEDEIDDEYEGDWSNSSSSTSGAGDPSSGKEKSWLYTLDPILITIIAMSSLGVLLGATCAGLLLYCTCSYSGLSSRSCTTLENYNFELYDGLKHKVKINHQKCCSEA

The target of assay [1] is Neuropilin 2 (mouse (endogenous in immortalised mouse lung microvascular ECs)) (UniProt O35375). The assay can be described thus: co-IP.
The target in assay [2] is T1, p120-catenin (Ctnnd1) (mouse (endogenous in immortalised mouse lung microvascular ECs)) (UniProt P30999).
T1 sequence: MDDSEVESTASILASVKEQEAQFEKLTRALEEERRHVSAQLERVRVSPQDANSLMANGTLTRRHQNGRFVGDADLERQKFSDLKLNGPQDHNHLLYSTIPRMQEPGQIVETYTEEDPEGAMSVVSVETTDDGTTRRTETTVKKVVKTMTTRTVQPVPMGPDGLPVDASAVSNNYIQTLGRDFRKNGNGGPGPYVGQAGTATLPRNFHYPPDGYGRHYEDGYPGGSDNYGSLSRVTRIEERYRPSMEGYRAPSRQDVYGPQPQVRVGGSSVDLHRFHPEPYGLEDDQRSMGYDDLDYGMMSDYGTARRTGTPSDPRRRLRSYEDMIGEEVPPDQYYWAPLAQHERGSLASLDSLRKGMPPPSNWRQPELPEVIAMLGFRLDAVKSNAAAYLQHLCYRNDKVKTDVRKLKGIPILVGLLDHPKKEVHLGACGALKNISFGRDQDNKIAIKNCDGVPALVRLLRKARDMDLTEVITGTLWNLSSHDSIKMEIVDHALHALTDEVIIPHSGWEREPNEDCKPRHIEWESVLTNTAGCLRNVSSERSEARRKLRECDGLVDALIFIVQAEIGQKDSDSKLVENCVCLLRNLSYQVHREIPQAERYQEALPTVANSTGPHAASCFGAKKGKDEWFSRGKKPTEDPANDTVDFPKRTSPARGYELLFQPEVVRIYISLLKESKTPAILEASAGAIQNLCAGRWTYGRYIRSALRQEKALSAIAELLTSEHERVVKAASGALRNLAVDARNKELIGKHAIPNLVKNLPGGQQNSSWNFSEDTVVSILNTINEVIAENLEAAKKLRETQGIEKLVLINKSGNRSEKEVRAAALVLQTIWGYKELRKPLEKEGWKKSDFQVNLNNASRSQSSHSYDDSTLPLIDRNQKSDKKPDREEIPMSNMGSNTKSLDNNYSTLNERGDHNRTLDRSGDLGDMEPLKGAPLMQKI
The assay can be described thus: co-IP.

B1: Vascular endothelial (VE)-cadherin (Cdh5) (protein, UniProt P55284 46-784)
chain: DWIWNQMHIDEEKNESLPHYVGKIKSNVNRQNAKYVLQGEFAGKIFGVDANTGNVLAYERLDREKVSEYFLTALIVDKNTNKNLEQPSSFTVKVHDINDNWPVFSHQVFNASVPEMSAIGTSVIRVTAVDADDPTVAGHATVLYQIVKGNEYFSIDNSGLIFTKIKNLDREKQAEYKIVVETQDALGLRGESGTATVMIRLEDINDNFPVFTQSTYTFSVPEDIRVGKPLGFLTVVDPDEPQNRMTKYSIMQGEYRDTFTIETDPKRNEGIIKPTKSLDYEVIQQYTFYIEATDPTIRYEYLSSTSGKNKAMVTINVLDVDEPPVFQRHFYHFKLPENQKKPLIGTVVAKDPDKAQRSIGYSIRKTSDRGQFFRITKQGNIYNEKELDRETYAWYNLTVEANELDSRGNPVGKESIVQVYIEVLDENDNPPEFAQPYEPKVCENAAQGKLVVQISATDKDVVPVNPKFKFALKNEDSNFTLINNHDNTANITVKYGQFNREHAKFHYLPVLISDNGVPSLTGTSTLTVGVCKCNEQGEFTFCEEMAAQAGVSIQALVAIFLCILTITVITLLIILRRRIRKQAHAHSKSALEIHEQLVTYDEEGGGEMDTTSYDVSVLNSVRGGSTKPLRSTMDARPAVYTQVQKPPRLAPGLHGGPREMATMIDVKKEEADNDGGGPPYDTLHIYGYEGAESIAESLSSLSTNSSDSDIDYDFLNDWGPRFKMLAELYGSDPQEELII
Take B1: the binding result in assay [1] and in assay [2] was “binds” throughout.

For the origin of these results see paper doi:10.1101/2025.03.09.642194.
